This assay addresses Ribosomal protein S6 kinase beta-1 (Homo sapiens, UniProt P23443, T412E). It is filed as cell-based, Sf21.

Protein sequences, listed by entry. Tags and fused reporters are not part of them.
UniProt P23443, whole entry T412E: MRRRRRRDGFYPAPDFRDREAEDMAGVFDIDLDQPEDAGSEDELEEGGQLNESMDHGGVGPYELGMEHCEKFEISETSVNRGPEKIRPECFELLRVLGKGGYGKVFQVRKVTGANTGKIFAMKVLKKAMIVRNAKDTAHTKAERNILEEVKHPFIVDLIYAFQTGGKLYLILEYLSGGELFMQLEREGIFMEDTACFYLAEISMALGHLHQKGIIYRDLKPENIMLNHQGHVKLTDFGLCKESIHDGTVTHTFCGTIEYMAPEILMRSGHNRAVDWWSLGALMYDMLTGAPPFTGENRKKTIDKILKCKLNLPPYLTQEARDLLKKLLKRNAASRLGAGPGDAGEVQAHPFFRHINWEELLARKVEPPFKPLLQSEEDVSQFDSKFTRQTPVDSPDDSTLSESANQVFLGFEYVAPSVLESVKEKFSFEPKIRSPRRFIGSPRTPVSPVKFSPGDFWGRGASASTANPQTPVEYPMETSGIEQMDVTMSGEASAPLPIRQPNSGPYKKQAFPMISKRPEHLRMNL

pIC50: −log10 of the molar value.

`NC(=O)c1cccc2c(NCc3ccc(F)cc3)ncnc12`: the pIC50 is 7.38.
